Paper PMC11994801
Read-outs that look alike come from different tables or passages of the source. Results are given in words; binding and its absence hold for the method and conditions named. In cells and extracts the contact can be indirect. Some results given as binding are weak or reduced against the parent protein; the word gives no strength. For some of these results: Sequences can lack the tags named with a protein.

Amino acid sequences for entries named in this document (tags omitted).
UniProt Q14145: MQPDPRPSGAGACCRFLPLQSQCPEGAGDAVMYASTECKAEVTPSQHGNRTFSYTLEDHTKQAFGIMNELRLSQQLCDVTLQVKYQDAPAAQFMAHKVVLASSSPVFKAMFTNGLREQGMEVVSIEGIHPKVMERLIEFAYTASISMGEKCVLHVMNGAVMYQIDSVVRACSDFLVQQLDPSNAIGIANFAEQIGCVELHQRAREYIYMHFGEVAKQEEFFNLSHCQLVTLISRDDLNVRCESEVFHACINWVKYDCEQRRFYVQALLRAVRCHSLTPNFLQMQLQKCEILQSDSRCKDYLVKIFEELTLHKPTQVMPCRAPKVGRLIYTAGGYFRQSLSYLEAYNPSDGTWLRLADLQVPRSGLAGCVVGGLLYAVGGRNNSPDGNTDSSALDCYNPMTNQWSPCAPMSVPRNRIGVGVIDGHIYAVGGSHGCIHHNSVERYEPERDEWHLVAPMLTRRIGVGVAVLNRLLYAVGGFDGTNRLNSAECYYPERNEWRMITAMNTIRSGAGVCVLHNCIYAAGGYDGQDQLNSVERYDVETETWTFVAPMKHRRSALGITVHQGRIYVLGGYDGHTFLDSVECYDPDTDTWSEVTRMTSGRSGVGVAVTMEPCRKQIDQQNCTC
UniProt O94972: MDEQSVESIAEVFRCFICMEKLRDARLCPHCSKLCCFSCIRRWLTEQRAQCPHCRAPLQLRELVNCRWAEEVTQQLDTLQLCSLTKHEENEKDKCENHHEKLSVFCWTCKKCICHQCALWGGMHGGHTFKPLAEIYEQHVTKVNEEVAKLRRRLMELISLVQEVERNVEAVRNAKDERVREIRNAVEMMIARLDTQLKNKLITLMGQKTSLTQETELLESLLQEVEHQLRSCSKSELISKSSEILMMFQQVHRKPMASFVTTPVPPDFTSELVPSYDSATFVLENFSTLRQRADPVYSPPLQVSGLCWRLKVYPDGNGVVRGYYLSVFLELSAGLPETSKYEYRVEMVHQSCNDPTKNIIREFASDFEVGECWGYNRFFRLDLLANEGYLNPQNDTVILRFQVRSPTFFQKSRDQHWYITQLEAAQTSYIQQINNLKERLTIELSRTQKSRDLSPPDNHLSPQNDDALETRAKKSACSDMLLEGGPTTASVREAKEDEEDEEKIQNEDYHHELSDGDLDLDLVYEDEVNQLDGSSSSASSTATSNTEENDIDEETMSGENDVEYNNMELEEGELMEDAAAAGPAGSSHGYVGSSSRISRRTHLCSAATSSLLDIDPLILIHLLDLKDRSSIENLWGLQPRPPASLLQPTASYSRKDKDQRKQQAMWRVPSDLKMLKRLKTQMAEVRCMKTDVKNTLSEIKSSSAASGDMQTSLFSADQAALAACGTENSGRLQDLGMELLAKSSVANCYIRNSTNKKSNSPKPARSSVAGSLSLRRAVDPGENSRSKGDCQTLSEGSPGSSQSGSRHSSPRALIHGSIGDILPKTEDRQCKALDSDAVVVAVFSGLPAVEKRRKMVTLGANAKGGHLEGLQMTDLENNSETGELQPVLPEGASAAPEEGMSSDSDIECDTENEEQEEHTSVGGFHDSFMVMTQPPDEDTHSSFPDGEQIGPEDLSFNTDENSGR

Legend:
[1] = biological target: KEAP1, endogenous (human (endogenous in BGC-823 and HGC-27)) (UniProt Q14145); test: co-IP; endogenous co-IP; BGC-823 and HGC-27 lysates incubated with magnetic beads conjugated to anti-TMEM160, anti-KEAP1 or anti-TRIM37 polyclonal antibodies at 4°C for 48 h; WB
[2] = biological target: T1, TMEM160, endogenous (human (endogenous in BGC-823 and HGC-27)) (UniProt Q9NX00); test: as above
T1 sequence: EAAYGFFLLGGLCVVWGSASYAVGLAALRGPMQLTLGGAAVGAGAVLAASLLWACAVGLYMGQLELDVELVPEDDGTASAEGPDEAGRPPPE

[3] = biological target: HA-KEAP1 (Kelch-like ECH-associated protein 1) (UniProt Q14145); test: co-IP; exogenous co-IP from HEK-293T cells co-transfected with tagged plasmids; protein A/G Immunoprecipitation Kit; IP by tag antibodies (anti-Flag, anti-HA as indicated), detection by WB; in Fig. 5G with or without Myc-TMEM160 overexpression
[4] = biological target: T2, Myc-TMEM160 (transmembrane protein 160) (UniProt Q9NX00); test: as above
T2 sequence: T1 sequence

Flag-KEAP1 WT = Flag-KEAP1 WT (UniProt Q14145); test: as above
[5] = biological target: HA-KEAP1 (Kelch-like ECH-associated protein 1) (UniProt Q14145); test: as above; remark: listed apart in the source
[6] = biological target: KEAP1, endogenous (human (endogenous in BGC-823 and HGC-27)) (UniProt Q14145); test: co-IP; endogenous co-IP; BGC-823 and HGC-27 lysates incubated with magnetic beads conjugated to anti-TMEM160, anti-KEAP1 or anti-TRIM37 polyclonal antibodies at 4°C for 48 h; WB; remark: listed apart in the source

Molecule: TRIM37, endogenous (from UniProt O94972 1-964)
- binding [1]: binds
- binding [2]: binds

Molecule: Flag-TRIM37 (from UniProt O94972 1-964)
- binding [3]: binds
- binding [4]: binds

B1: Myc-TMEM160 (transmembrane protein 160) (protein, UniProt Q9NX00 97-188)
chain: T1 sequence
- binding (Flag-KEAP1 WT): binds
- binding [5]: binds

B2: TMEM160, endogenous (protein, UniProt Q9NX00 97-188)
chain: T1 sequence
- binding [6]: binds
